According to PubChem BioAssay AID1347076 (National Center for Advancing Translational Sciences (NCATS), 2019):
Hit rate of the full screen: of about 400,000 compounds, about 13,000 (3.2%) were called active. Inconclusive means that the source gave no clear call. Such entries were picked first, then a sample of the others. The call rests on the fitted dose curve; in most records, active means well fitted cell-killing curve with a large enough effect; inconclusive means small, poorly fitted or top-dose-only effect, or effect the other way; inactive means flat fitted curve, though single readings scatter. A potency beside an inconclusive call is a rough fit, not a confirmed value.
On the % scale 0 is the no-effect control and ±100 the full control effect; potency means the concentration at half of the fitted maximal effect.

Test: qHTS assay for MDR1-selective chemotherapeutics: Primary screen using the drug-selected MDR subline cells KB-V1; further: nearly all actives have a fitted effect of over 60% in size
Conditions: KB-V1 MDR cells viability, CellTiter-Glo, 72 h; activity change, negative = cytotoxicity: at 46.1 µM (top of the series)
Summary of the method: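 KB-V1 cells (P-gp-expressing MDR subline of KB-3-1) in phenol-red-free DMEM with 10% FBS were exposed to library compounds over a concentration series for 72 h at 37 degrees C. Viability read by CellTiter-Glo luminescence; concentration-effect curves fitted after normalization.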
With Cc1ccccc1-c1cccc(CN2CCN(C)C(CCO)C2)c1 (stereo not drawn) the “activity change, negative = cytotoxicity” value was inactive: -11.1%. For COCCCNC(=O)c1ccc2c(=O)n(Cc3ccc(Cl)cc3)c(=S)[nH]c2c1, the “activity change, negative = cytotoxicity” value was inactive: -5.6%. In the case of COCCN(C(=O)c1csnn1)C(C(=O)NC1CCCCC1)c1cccs1 (stereo not drawn), the “activity change, negative = cytotoxicity” value is reported as inactive: -2.13%. In the case of CCC(=O)c1ccc(OCc2ccc(C(=O)c3ccccc3)cc2)cc1, the Potency is reported as active: 10.3 µM. For COc1cccc(/C=C/C(=O)OCC(=O)NCCCc2ccccc2)c1OC, the “activity change, negative = cytotoxicity” value was inactive: 0%. In the case of Cc1cccc(C)c1-n1nnnc1C(CCc1ccccc1)N1CCN(C/C=C/c2ccccc2)CC1 (stereo not drawn), the Potency is reported as inconclusive: 18.4 µM [cytotoxic, partial curve, poor fit]. In the case of COc1ccc(N2CCN(C(C)C(=O)N3CCc4ccccc43)CC2)cc1 (stereo not drawn), the Potency is reported as inconclusive: 10.3 µM [cytotoxic, partial curve]. In the case of COc1ccc2occ(C(=O)c3coc4ccc(O)c(CN(C)C)c34)c2c1, the Potency is reported as inconclusive: 20.6 µM [cytotoxic, single point]. In the case of Cc1ccccc1C(=O)NNC(=O)/C=C\C(=O)O, the “activity change, negative = cytotoxicity” value is reported as inactive: -24.5%. For COc1ccc(C2NC(=S)NC3=C2CCc2ccccc23)cc1OC (stereo not drawn), the Potency was inconclusive: 2.31 µM [cytotoxic, partial curve]. For O=C(c1ccc2c(c1)OCO2)N(Cc1ccco1)C1(C(=O)NC2CCCCC2)CCCCC1, the “activity change, negative = cytotoxicity” value was inactive: 0%. With O=C(COC(=O)CN1C(=O)NC2(CCCC2)C1=O)Nc1ccc(C(F)(F)F)cc1[N+](=O)[O-] the Potency was inconclusive: 16.4 µM [rising, partial curve, poor fit]. In the case of COc1ccc(-c2cn3nc(N4CCCC(C(=O)Nc5ccccc5OC)C4)sc3n2)cc1 (stereo not drawn), the “activity change, negative = cytotoxicity” value is reported as inactive: 0%. For c1csc(-c2csc3nc(CN4CCOCC4)nc(NCc4ccc5c(c4)OCO5)c23)c1, the Potency was inconclusive: 16.4 µM [cytotoxic, single point]. With CCOC(=O)c1c(NC(=O)CSc2nnc(Cc3csc(N)n3)n2C)sc(C)c1C the “activity change, negative = cytotoxicity” value was inactive: 4.84%. With COc1ccccc1NC(=O)CSc1nc(-c2ccc(C)cc2)nc2c1Cc1c(CO)cnc(C)c1O2 the Potency was inconclusive: 16.4 µM [rising, single point]. In the case of CC(C(=O)NC1C=CS(=O)(=O)C1)N1C(=O)/C(=C\c2ccccc2)SC1=S (stereo not drawn), the Potency is reported as inconclusive: 18.4 µM [rising, single point]. For Cn1ccc2ccc(C3=CC(=O)C[C@H](c4ccc(F)cc4)C3)cc21, the “activity change, negative = cytotoxicity” value was inactive: 15.5%. With COc1ccc(CCNC(=O)Cn2cnc3sc(C)c(-c4ccc(F)cc4)c3c2=O)cc1OC the Potency was inconclusive: 16.4 µM [cytotoxic, partial curve]. For COc1ccc(NC2=CC(=O)CC(c3ccccc3)C2)c(OC)c1 (stereo not drawn), the Potency was active: 2.59 µM. With COc1ccc(-c2csc(Nc3ccc(S(=O)(=O)Nc4cc(OC)nc(OC)n4)cc3)n2)cc1 the Potency was inconclusive: 25.9 µM [cytotoxic, partial curve, poor fit]. In the case of COC(=O)c1ccccc1NC(=O)Cn1c(=O)n(CCC(=O)NCc2ccccc2OC)c(=O)c2ccccc21, the “activity change, negative = cytotoxicity” value is reported as inactive: 0%. In the case of CN(C)C(CNC(=O)c1ccc(S(=O)(=O)Nc2ccccc2)cc1)c1ccco1 (stereo not drawn), the Potency is reported as inconclusive: 13 µM [cytotoxic, partial curve, poor fit]. With O=C(Nc1ncccn1)c1cc(-c2cccc(Br)c2)nc2ccccc12 the Potency was inconclusive: 18.4 µM [cytotoxic, single point]. With O=C(Nc1ccc(Cl)c(Cl)c1)OCCNC(=O)c1cccc(Cl)c1 the Potency was inconclusive: 16.4 µM [cytotoxic, single point]. With CC(=O)C[C@H]1c2cc(F)cc(F)c2S(=O)(=O)N1C1CCN(Cc2ccccc2)CC1 the Potency was inconclusive: 10.3 µM [cytotoxic, partial curve, poor fit]. In the case of CCOC(=O)c1nnn(-c2nc(N3CCCC3)nc(N3CCCC3)n2)c1-c1ccccc1, the “activity change, negative = cytotoxicity” value is reported as inactive: -19.3%. In the case of Nc1cc(=O)[nH]c(=O)n1CCCc1ccccc1, the Potency is reported as inconclusive: 32.6 µM [rising, single point]. With O=C(NC1(C(F)(F)F)C(=O)Nc2c1c(=O)[nH]c(=O)n2-c1ccccc1)c1ccccc1Cl (stereo not drawn) the Potency was inconclusive: 16.4 µM [rising, single point]. For C=Cc1ccc(Cn2c(=O)cc(C)c3c(C)nn(-c4ccccc4)c32)cc1, the “activity change, negative = cytotoxicity” value was inactive: -5.49%. In the case of COc1ccc(-c2csc(NC(=O)c3ccccc3NS(=O)(=O)c3ccc(C)cc3)n2)cc1, the Potency is reported as active: 2.31 µM. With COc1ccc(OCc2cc(C(=O)NC(C)Cc3cccnc3)no2)c(Cl)c1 (stereo not drawn) the Potency was inconclusive: 1.3 µM [cytotoxic, partial curve, poor fit]. With O=C1C=CC(=O)N1CCNc1ncc(C(F)(F)F)cc1Cl the Potency was inconclusive: 29.1 µM [cytotoxic, single point]. In the case of Cc1[nH]c2ccccc2c1C(c1c(C)[nH]c2ccccc12)c1c(C)[nH]c2ccccc12, the Potency is reported as inconclusive: 0.651 µM [rising, full curve, poor fit]. For O=c1[nH][nH]c2c1[C@H](c1ccc(Cl)cc1)O[C@H](C1CCCCC1)C2, the Potency was inconclusive: 4.61 µM [rising, full curve, poor fit]. In the case of COc1ccc(S(=O)(=O)N2CCCC(C(=O)Nc3ccc4c(c3)OCCO4)C2)cc1 (stereo not drawn), the Potency is reported as inconclusive: 8.2 µM [cytotoxic, partial curve]. For c1ccc(-c2nnnn2CCOCCn2nnnc2-c2ccccc2)cc1, the activity change, negative = cytotoxicity was inconclusive: -34.2% [cytotoxic]. For O=C(C1=NOC2(C1)C(=O)Nc1ccccc12)N1CCCC1 (stereo not drawn), the Potency was inconclusive: 25.9 µM [rising, single point]. For Cc1ccc(C(=O)Nc2ccc(Cl)cn2)cc1, the Potency was active: 6.51 µM. For CSCCC(NS(=O)(=O)c1ccc2c(c1)oc(=O)n2C)C(=O)Nc1ccc(Cl)cc1 (stereo not drawn), the Potency was inconclusive: 5.8 µM [rising, full curve]. With CC(=O)Nc1ccc(NC(=O)C(C)OC(=O)C2(c3ccc(Cl)cc3)CCCC2)cc1 (stereo not drawn) the Potency was inconclusive: 14.6 µM [cytotoxic, partial curve]. For COc1cccc(Nc2nc(C)nc3c2oc2ccccc23)c1, the “activity change, negative = cytotoxicity” value was inactive: -29.1%. With COc1ccc(NC(=O)Cn2c(=O)n(Cc3ccc4c(c3)OCO4)c(=O)c3ccc(C(=O)NC4CCCCC4)cc32)cc1 the Potency was inconclusive: 29.1 µM [rising, single point].
